PubChem BioAssay AID1508597 – Cure First | 2020

- Purpose: 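Survival screen with siRNA in ovarian cancer cells derived from patients, with or without rucaparib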 (primary screen)
- System: human ovarian carcinoma lines grown from tumours: OCI-P5x (papillary serous) and OCI-C5x (clear cell)
- Reagents: siRNA pool against human genes, 1.25 pmol siRNA per well
- Time to read-out: 72 h or 96 h, depending on the cell culture
- Challenge: rucaparib 20 µM (about IC30) or vehicle, present until read-out
- Rucaparib or vehicle: Rucaparib
- Cell line: OCI-C5x (clear cell)
- Measured: 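Luminescent ATP-based viability assay read 72 or 96 h after transfection, depending on culture, given as normalised percent viability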
- Scale: viability, normalised: higher = more viable cells remaining
- Call rule: 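Active when normalised viability falls below 80 percent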
- Calls: active = viability under 80%; inactive = viability 80% or more
Shown is an unselected part of the about 2,100 reagents, under one of the conditions tested. 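Calls flag viability under 80% in either arm, not effects specific to rucaparib; the reference for percent is not stated.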 Unmarked entries are inactive. Some reagents were tested in more than one well and are listed for each. Not stated in the record: the 100% reference.

{"gene": "PKN1", "technical replicate": "1", "viability, normalised (%)": "66.4 (active)"}
{"gene": "PKN1", "technical replicate": "1", "viability, normalised (%)": "51.5 (active)"}
{"gene": "PKN1", "technical replicate": "1", "viability, normalised (%)": "57.4 (active)"}
{"gene": "PKN1", "technical replicate": "2", "viability, normalised (%)": "58.9 (active)"}
{"gene": "PKN1", "technical replicate": "2", "viability, normalised (%)": "51.7 (active)"}
{"gene": "PKN1", "technical replicate": "2", "viability, normalised (%)": 106}
{"gene": "PKN1", "technical replicate": "3", "viability, normalised (%)": "49.3 (active)"}
{"gene": "PKN1", "technical replicate": "3", "viability, normalised (%)": "75 (active)"}
{"gene": "PKN1", "technical replicate": "3", "viability, normalised (%)": "52.5 (active)"}
{"gene": "TIPARP", "technical replicate": "1", "viability, normalised (%)": "41.8 (active)"}
{"gene": "TIPARP", "technical replicate": "2", "viability, normalised (%)": "37.8 (active)"}
{"gene": "TIPARP", "technical replicate": "3", "viability, normalised (%)": "32.7 (active)"}
{"gene": "TSSK2", "technical replicate": "1", "viability, normalised (%)": "51 (active)"}
{"gene": "TSSK2", "technical replicate": "2", "viability, normalised (%)": "74.3 (active)"}
{"gene": "TSSK2", "technical replicate": "3", "viability, normalised (%)": "53.3 (active)"}
{"gene": "ALKBH3", "technical replicate": "1", "viability, normalised (%)": "50.1 (active)"}
{"gene": "ALKBH3", "technical replicate": "2", "viability, normalised (%)": "41.3 (active)"}
{"gene": "ALKBH3", "technical replicate": "3", "viability, normalised (%)": "44 (active)"}
{"gene": "PHF3", "technical replicate": "1", "viability, normalised (%)": "53.7 (active)"}
{"gene": "PHF3", "technical replicate": "2", "viability, normalised (%)": "53 (active)"}
{"gene": "PHF3", "technical replicate": "3", "viability, normalised (%)": "46.4 (active)"}

Taken from above:
ALKBH3, technical replicate 3, viability, normalised (%) → 44 (active)
TIPARP, technical replicate 1, viability, normalised (%) → 41.8 (active)
Under “viability, normalised (%)”, TSSK2, technical replicate 3 has 53.3 (active)
PHF3, technical replicate 3, viability, normalised (%) = 46.4 (active)
